From article PMC4557334
No constants are given. Whether binding was seen depends on the method and setting. Binding seen in cells or lysates may run through a third protein. Some binding calls cover weakened binding; strength is not graded here.

Protein sequences, listed by entry. Tags and fused reporters are not part of them.
UniProt P30153: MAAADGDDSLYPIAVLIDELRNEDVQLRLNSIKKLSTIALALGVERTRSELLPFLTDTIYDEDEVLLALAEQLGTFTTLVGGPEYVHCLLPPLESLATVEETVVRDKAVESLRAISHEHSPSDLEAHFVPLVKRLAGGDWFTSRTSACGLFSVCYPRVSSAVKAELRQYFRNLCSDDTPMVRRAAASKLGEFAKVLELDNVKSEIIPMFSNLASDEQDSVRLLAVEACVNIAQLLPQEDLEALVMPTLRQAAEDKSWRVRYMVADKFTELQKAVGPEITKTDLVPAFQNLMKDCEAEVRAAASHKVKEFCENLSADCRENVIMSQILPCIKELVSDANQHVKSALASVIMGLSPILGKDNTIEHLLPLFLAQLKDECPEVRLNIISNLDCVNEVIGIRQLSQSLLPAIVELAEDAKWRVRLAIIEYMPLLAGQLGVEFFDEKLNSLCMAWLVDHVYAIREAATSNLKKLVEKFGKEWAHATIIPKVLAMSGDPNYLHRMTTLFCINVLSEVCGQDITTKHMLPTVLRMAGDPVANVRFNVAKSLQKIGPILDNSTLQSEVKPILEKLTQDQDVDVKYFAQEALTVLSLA
UniProt P30154: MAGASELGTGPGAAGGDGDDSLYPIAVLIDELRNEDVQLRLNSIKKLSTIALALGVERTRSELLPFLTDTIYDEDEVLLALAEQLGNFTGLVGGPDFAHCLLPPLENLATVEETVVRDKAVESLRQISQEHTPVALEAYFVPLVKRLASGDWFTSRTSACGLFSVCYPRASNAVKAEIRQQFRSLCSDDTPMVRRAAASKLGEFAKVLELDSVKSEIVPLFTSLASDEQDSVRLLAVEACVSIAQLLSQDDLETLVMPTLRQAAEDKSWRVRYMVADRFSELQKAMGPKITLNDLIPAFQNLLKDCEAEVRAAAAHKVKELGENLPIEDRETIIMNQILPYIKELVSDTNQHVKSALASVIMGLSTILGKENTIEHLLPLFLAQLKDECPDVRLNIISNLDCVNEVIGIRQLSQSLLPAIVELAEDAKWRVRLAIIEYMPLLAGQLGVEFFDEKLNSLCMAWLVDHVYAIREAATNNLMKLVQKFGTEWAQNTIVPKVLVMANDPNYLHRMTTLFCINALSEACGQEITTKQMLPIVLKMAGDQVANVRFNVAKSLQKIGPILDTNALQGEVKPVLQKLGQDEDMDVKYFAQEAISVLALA
UniProt Q9Y4B6: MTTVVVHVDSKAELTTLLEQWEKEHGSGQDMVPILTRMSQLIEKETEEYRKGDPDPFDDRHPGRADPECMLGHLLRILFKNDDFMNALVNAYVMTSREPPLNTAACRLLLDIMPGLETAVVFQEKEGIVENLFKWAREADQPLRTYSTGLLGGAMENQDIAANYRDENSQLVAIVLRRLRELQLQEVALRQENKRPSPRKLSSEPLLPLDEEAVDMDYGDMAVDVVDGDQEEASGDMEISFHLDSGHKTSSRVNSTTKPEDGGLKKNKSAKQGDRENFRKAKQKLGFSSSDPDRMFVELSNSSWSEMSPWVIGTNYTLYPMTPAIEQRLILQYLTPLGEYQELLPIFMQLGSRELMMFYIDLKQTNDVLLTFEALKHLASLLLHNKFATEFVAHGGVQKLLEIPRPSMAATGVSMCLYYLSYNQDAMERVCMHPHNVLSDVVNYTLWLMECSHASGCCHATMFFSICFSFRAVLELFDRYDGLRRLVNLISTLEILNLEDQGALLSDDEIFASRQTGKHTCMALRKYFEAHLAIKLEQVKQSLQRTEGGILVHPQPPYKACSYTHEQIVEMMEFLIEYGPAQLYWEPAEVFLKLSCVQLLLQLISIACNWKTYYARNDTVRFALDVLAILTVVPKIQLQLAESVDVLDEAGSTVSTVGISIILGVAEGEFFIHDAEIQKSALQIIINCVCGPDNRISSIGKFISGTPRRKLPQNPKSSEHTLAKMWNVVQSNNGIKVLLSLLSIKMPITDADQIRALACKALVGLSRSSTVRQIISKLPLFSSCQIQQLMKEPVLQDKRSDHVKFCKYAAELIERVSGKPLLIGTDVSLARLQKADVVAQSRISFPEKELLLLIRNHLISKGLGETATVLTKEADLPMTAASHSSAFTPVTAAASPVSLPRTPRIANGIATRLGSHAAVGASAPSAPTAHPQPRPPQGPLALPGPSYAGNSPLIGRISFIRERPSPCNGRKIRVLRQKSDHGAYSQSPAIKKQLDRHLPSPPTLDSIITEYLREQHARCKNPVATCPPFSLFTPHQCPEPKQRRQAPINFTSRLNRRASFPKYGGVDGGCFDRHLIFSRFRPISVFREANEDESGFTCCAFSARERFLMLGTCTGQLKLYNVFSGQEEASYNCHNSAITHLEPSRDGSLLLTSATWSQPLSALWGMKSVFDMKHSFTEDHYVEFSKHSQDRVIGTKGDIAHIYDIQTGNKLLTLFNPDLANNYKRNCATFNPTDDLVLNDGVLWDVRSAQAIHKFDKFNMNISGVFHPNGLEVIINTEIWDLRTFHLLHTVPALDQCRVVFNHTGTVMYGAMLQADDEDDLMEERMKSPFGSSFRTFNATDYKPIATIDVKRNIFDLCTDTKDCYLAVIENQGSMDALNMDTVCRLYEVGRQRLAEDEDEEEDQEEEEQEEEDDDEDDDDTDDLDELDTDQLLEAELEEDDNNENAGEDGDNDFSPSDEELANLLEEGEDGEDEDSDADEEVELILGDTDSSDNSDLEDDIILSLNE

Tests used:
FLAG-PPP2R1A = FLAG-PPP2R1A (UniProt P30153); assay: co-IP; HeLa cells co-transfected with MYC-DCAF1 and FLAG-PPP2R1A/B for 48 h; immunoprecipitation with anti-FLAG agarose beads, 4 °C 4 h, lysis buffer 50 mM Tris-HCl pH 7.5, 150 mM NaCl, 10% glycerol, 0.5% NP-40; western blot
FLAG-PPP2R1B = FLAG-PPP2R1B (UniProt P30154); assay: as above
[1] = molecular target: DCAF1 (Supplementary Fig. 7c) (UniProt Q9Y4B6); assay: pull-down; PPP2R1A binding with different DCAF1 fragments (Supplementary Fig. 7c); DCAF1 or fragment pulled down, PPP2R1A detected

binding (FLAG-PPP2R1A)	binding (FLAG-PPP2R1B)	binding [1]	Substance
binds	binds		MYC-DCAF1 (from UniProt Q9Y4B6 1-1507)
		binds	PPP2R1A (Supplementary Fig. 7c) (from UniProt P30153 1-589)
